Assay [1] concerns the target T1, IKKi (endogenous, HeLa cells) (human (HeLa cells)) (UniProt Q14164).
T1 sequence (looked up): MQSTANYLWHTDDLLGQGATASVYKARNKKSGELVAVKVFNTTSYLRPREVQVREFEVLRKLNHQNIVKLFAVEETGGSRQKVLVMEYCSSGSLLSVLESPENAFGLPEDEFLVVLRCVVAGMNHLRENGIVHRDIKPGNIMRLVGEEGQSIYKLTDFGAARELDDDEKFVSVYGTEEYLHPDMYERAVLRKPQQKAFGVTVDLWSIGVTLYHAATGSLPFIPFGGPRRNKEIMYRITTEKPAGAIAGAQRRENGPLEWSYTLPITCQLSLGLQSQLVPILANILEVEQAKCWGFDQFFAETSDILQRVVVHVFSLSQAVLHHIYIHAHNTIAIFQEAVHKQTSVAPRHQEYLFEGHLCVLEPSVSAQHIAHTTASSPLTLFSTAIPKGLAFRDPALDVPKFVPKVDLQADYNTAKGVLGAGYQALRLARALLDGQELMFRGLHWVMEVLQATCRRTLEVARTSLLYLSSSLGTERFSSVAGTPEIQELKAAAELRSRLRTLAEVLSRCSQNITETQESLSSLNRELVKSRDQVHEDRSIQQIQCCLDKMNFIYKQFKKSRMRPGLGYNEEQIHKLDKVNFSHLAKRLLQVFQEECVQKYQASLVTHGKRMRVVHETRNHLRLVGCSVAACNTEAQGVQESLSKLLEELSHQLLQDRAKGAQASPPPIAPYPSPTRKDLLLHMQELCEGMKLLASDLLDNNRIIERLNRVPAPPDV
In words: co-immunoprecipitation with anti-Act1 from HeLa cells, IL-17 0, 15, 30, 60 min, control IgG at 0 and 15 min, Western blot. (In western blotting, separated proteins are transferred to a membrane and probed.)

Sequences of proteins named here, by UniProt entry; tags and fusion partners are left off.
UniProt O43734: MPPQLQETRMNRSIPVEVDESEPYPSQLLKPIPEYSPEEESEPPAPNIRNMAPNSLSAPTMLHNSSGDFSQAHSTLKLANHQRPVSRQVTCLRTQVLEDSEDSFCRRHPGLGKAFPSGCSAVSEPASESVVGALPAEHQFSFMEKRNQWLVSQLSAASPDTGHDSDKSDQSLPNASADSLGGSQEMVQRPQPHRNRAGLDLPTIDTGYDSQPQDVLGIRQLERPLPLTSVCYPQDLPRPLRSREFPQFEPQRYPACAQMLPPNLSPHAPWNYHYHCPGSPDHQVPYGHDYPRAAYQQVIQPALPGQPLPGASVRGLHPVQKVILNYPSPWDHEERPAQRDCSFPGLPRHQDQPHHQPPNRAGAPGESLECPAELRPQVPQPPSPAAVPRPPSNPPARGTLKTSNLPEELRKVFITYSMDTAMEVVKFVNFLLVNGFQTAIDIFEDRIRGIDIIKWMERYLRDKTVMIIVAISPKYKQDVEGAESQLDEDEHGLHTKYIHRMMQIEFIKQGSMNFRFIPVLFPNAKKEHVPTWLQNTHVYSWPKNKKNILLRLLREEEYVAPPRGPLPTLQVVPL

In assay [2] the target is T2, TBK1 (endogenous, HeLa cells) (human (HeLa cells)) (UniProt Q9UHD2).
T2 sequence (looked up): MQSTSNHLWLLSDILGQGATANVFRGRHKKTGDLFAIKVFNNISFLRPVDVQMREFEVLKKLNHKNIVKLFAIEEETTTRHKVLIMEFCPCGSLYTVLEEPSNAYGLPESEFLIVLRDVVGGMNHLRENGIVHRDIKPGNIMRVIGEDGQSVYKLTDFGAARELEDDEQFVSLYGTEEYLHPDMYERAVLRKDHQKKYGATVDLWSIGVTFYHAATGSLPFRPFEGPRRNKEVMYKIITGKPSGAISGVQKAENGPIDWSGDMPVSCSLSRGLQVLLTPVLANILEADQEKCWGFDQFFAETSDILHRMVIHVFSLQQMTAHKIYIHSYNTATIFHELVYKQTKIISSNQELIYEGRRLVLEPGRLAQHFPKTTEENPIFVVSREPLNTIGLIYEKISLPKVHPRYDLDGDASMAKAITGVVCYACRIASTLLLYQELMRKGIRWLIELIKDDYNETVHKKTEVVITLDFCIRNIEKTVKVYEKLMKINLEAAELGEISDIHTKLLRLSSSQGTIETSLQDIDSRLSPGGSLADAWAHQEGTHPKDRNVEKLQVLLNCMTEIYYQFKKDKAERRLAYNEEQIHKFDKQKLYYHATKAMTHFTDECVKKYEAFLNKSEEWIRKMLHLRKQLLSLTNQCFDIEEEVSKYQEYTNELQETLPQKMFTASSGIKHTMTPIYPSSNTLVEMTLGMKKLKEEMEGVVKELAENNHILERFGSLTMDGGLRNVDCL
The assay is described as above.

These results are taken from US20230009539A1.

These are yes or no findings as the source states them, for the method shown. Binding seen in cells or lysates may run through a third protein. Some results given as binding are weak or reduced against the parent protein; the word gives no strength.

On to “Act1 (endogenous, HeLa cells) (from UniProt O43734 1-574)”, for which the binding entry in assay [1] and in assay [2] was “binds” throughout.
